Results taken from patent US8557783B2, “Phosphotetrahydropyran compounds for the treatment of wounds and fibrotic disorders” (Pharmaxis Pty Limited, priority 2009, dated 2013).
At least one structure is not confirmed: it was looked up by name or label, or the drawing left a doubt.

Experiments:
[1] = system: thioglycolate-induced leukocyte migration in the peritoneal cavity, C57BI/6 mice; experiment: Thioglycolate-induced peritonitis in the mouse; assay type: in vivo
Method: Germ-free male C57BI/6 mice, weighing in the target range of 21.30±0.39 g (6-7 week-old) were anaesthetised with halothane and then received by intravenous route (iv) increasing doses of the phosphotetrahydropyran test compound (5 or 15 mg/kg, −15 min), dexamethasone (1 mg/kg, −60 min) or the respective vehicle (saline 0.9%, pH 7.4). Peritoneal inflammation was induced by i.p. injection of Brewer's thioglycolate. Thioglycolate was prepared freshly (3%, w/v) in sterile saline, and 1.5 mL was injected into the intraperitoneum cavity (ip). Following 3 h treatment, animals were killed (under anesthesia) by cervical dislocation, and cells were recovered by peritoneal lavage using 5 mL of ice-cold PBS. The lavage contents were immediately stored on ice. Peritoneal exudate cells (PEC) were further diluted in 5 mL of ice-cold PBS. The total cell count was determined on a Neubauer chamber with Turk solution, whereas the differential cell counts were conducted on cytospin preparations. Peritoneal lavage was carefully confirmed to be negative for erythrocytes by microscopy to exclude the possibility that leukocyte accumulation in the peritoneal cavity was due to microbleeding, which may occur during animal preparation.
Data are expressed as Mean (±SEM) from n individual animals. […] Comparative data were analysed using ANOVA followed by Dunnett's post test and ANOVA (unpaired Student's T tests). […]

[2] = system: LPS-induced lung inflammation, C57BI/6 mice; experiment: Acute LPS-induced lung inflammation in the mouse; assay type: in vivo; conditions: 1 mg/kg or 2.5 mg/kg i.v., 1 hour prior to LPS
Method: Age-matched germ-free male C57BI/6 mice (25.30±0.39 g; 6-7 week-old) were transiently anaesthetized with a mixture of isoflurane and oxygen. The vehicle-treated group received intravenous injection (iv) of saline 15 min prior to intra-tracheal instillation (i.t.) of lipopolysaccharide (LPS, 3 mg/kg). Another set of animals received i.v. injection of dexamethasone at 1 mg/kg or 2.5 mg/kg 1 hour prior to LPS. The phosphotetrahydropyran test compound was administered to the animals at 5, 15 and 30 mg/kg (iv) 15 min prior to LPS instillation. A separate group of mice was used as sham (saline/PBS) and was treated with i.v. injection of saline and i.t. injection of PBS (phosphate buffered saline).
Three hours after the LPS administration, animals were anaesthetized with urethane (25%, […] body weight). A blood sample was collected by cardiac puncture (≅1 mL) and the animals were sacrificed by cervical dislocation. […] The total cell count was determined on a fresh fluid specimen with Turk solution using a Neubauer chamber. Differential cell counts were determined using Cytospin technique. […]
Slices of each pulmonary lobe were immediately removed from the animal, weighed and either frozen in liquid nitrogen for myeloperoxidase (MPO) assay or placed in the oven for lung oedema evaluation. […] Data were presented as MPO activity expressed as U/g wet tissue. […]

C[C@@H]1C[C@H]2[C@@H]3CCC4=CC(=O)C=C[C@]4(C)[C@@]3(F)[C@@H](O)C[C@]2(C)[C@@]1(O)C(=O)CO [dexamethasone, reference compound]
peritoneal total cell number in untreated mice compared with treated mice ([1]; 1 mg/kg iv, −60 min, 3 h): markedly higher | anti-inflammatory actions (leukocyte migration into the peritoneal cavity) ([1]; iv pre-treatment, 3 h after thioglycolate): Dose-dependent anti-inflammatory actions | cells influx into the BAL fluid [2]: almost abolished | total number of inflammatory cells in BAL fluid versus LPS control group [2]: not significantly different
